Measurements reported in PubChem BioAssay AID743255 (National Center for Advancing Translational Sciences (NCATS), 2014).
The whole screen tested about 390,000 compounds, of which about 910 (0.23%) were called active. Inconclusive results, whose numbers are uncertain, are shown with a selection of clear calls. The call rests on the fitted dose curve; in most records, active means well fitted inhibition curve with a large enough effect; inconclusive means small, poorly fitted or top-dose-only effect; inactive means no such curve, though single readings can be large or run the other way. Potencies of inconclusive entries are doubtful fits and often do not repeat.

Sequences of proteins named here, by UniProt entry; tags and fusion partners are left off. A change or cut given only in a name is not applied to a line headed by its entry.
UniProt O94782: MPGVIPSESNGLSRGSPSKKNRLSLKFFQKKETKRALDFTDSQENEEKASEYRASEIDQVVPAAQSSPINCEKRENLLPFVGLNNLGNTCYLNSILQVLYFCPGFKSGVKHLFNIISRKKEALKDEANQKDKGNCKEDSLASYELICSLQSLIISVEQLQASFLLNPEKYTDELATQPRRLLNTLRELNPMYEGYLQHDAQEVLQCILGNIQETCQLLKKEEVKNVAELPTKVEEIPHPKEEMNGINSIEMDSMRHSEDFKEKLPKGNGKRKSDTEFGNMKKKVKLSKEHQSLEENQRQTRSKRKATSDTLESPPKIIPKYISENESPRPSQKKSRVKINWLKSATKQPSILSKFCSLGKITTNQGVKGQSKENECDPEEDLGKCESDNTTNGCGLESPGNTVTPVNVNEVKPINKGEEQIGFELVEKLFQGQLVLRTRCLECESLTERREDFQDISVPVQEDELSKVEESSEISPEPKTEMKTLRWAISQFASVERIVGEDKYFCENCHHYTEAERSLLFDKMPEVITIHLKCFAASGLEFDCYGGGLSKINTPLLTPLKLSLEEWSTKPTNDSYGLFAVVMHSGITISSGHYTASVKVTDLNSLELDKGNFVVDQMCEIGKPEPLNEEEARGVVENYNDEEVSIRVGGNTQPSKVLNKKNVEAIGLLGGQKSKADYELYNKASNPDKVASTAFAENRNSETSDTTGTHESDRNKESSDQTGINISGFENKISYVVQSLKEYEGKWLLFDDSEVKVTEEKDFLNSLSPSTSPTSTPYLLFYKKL

These compounds were tested against Ubiquitin carboxyl-terminal hydrolase 1 (Homo sapiens) (UniProt O94782) (assay: Inhibitors of USP1/UAF1: Primary Screen). Settings: recombinant USP1/UAF1, Ub-Rhodamine cleavage fluorescence; series mostly up to 57.1 µM.
How it was run: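 USP1/UAF1 complex at 1 nM was preincubated with compound for 15 min at room temperature, then Ub-Rho substrate (150nM final) was added. Fluorescence (480/540 nm) was read kinetically, 6 reads every 60 seconds.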
Further: nearly all actives have a fitted effect of over 60% in size.
Potency means the concentration at half of the fitted maximal effect.

Potency, inactive:
Clc1ccccc1N1CCN(c2ncnc3c2c(-c2ccccc2)cn3-c2ccccc2)CC1
Cc1nn(-c2ccccc2)c2c1C(c1ccc(F)cc1F)C(C#N)=C(N)O2 (stereo not drawn)
c1ccc(CCNc2nc(-c3ccccn3)nc3ccccc23)cc1
CC(=O)c1cccc(NC(=S)N2CCc3ccccc32)c1
Cc1cccc(/C=N\N=C\c2cccc(C)c2)c1
O=C(Nc1ccccc1F)c1nc(S(=O)(=O)Cc2ccccc2F)ncc1Cl
Cc1ccc(-n2c3nc(=O)[nH]c(=O)c-3cc3cc([N+](=O)[O-])ccc32)cc1
COc1cccc(NC(=O)c2c(-c3ccc(C)cc3)nnc3ccccc23)c1
Cc1cccc(C)c1Nc1c(-c2ccccc2Cl)nc2cnccn12
COc1ccc(OC)c(S(=O)(=O)NCCc2sc(-c3cccnc3)nc2C)c1
COc1ccc(NC(=O)CN2c3cccc4cccc(c34)S2(=O)=O)cc1
CCOC(=O)C1=C(COC(=O)/C=C/c2ccc(Cl)cc2)NC(=O)NC1C (stereo not drawn)
CCN(CC)CCNC(=O)c1ccc(N2CCCCC2)c(NS(=O)(=O)c2ccc(C)cc2)c1
O=C(CCS(=O)(=O)c1ccccc1F)Nc1ccc(N2CCN(Cc3ccccc3)CC2)cc1
CC(C)CS(=O)(=O)c1oc(-c2ccc(F)cc2)nc1S(=O)(=O)c1ccccc1
CCN(CC)c1nc2c3c(nc4c(c3c1C#N)CC(=O)N4c1ccc(Cl)cc1)NC(C)=N2

Potency, active:
O=C(O)c1cc(N2N=C(C(F)(F)F)/C(=C/C=C/c3ccco3)C2=O)ccc1Cl 28.2 µM

Potency, inconclusive:
Cc1ccc(S(=O)(=O)N(CC(=O)Nc2ccc(C(C)C)cc2)Cc2ccccc2)cc1 0.708 µM [inhibitor, full curve, poor fit]
O=C(NCc1ccc(Cl)cc1)C(=O)NCC(c1cccs1)S(=O)(=O)c1ccc(Cl)cc1 (stereo not drawn) 0.251 µM [inhibitor, full curve, poor fit]
Cc1cccc(N2CCN(C(=O)c3ccc4nc(-c5ccco5)c(-c5ccco5)nc4c3)CC2C)c1 (stereo not drawn) 44.7 µM [inhibitor, partial curve]
COc1ccc(-c2nnnn2C)cc1S(=O)(=O)NCc1ccccc1 0.562 µM [inhibitor, full curve, poor fit]
CCOc1ccc(-c2nnc(SCC(=O)NC3CCCC3)nc2-c2ccc(OCC)c(OC)c2)cc1OC 5.01 µM [inhibitor, full curve]
Cc1cc(C)c(C)c(OCCCOc2cccc3cccnc23)c1 35.5 µM [inhibitor, partial curve]
Cn1c(=O)c(-c2cc(=O)[nH][nH]2)c(O)c2ccccc21 15.8 µM [inhibitor, partial curve, poor fit]
COc1ccc(C2C=C(c3ccccc3)Nc3nc(NS(=O)(=O)c4ccccc4)nn32)cc1 (stereo not drawn) 39.8 µM [inhibitor, partial curve, poor fit]
C[C@H]1COC(=O)[C@H](CC(=O)OC(C)(C)C)C/C=C\C[C@@H](CC(=O)N(CCO)Cc2ccccc2)C(=O)N1 5.62 µM [inhibitor, partial curve, poor fit]
Cc1ccc2c(c1)N(CC(=O)NC1CCCC1)C(=O)C(C)O2 (stereo not drawn) 0.282 µM [inhibitor, full curve, poor fit]
CC(NC(N)=O)C(=O)NCC(=O)OCc1ccccc1 (stereo not drawn) 5.62 µM [inhibitor, partial curve]
Cc1ccc(S(=O)(=O)Nc2cc(C)cn(Cc3ccc(F)cc3)c2=O)cc1 35.5 µM [inhibitor, partial curve]
COc1cc(/C=C/C(=O)OCC(=O)NC2CC2)cc(S(=O)(=O)N2CCc3ccccc32)c1OC 4.47 µM [inhibitor, partial curve]
Cc1oc2c(c1C(=O)N1CCOCC1)C(=O)c1ccccc1C2=O 3.55 µM [inhibitor, full curve, poor fit]
N#Cc1c(-c2ccccc2Cl)noc1/C=C/Nc1ccc(C(=O)O)cc1 50.1 µM [inhibitor, partial curve, poor fit]
Cc1ccc2c(CNCc3cccc(Cl)c3)c(C(=O)O)n(Cc3ccc(F)cc3Cl)c2c1 0.251 µM [inhibitor, full curve, poor fit]
c1ccc(CNc2nc(-c3ccccc3)nc3ccccc23)cc1 44.7 µM [inhibitor, partial curve, poor fit]
COc1cccc(-c2sc3ccccc3c2-c2ccc(OCCN(C)C)cc2)c1 6.31 µM [inhibitor, partial curve]
Cc1ccc(C)c(NC(=O)Nc2nnc(N(CC(C)C)CC(C)C)s2)c1 39.8 µM [inhibitor, single point]
O=C(Nc1ccc(C(F)(F)F)cc1)c1cc(S(=O)(=O)NC2CCCCCC2)ccc1F 44.7 µM [inhibitor, partial curve, poor fit]
CCOC(=O)N1CCc2[nH]c3ccc(C)cc3c2C1 6.31 µM [inhibitor, partial curve, poor fit]
O=C(N/N=C/c1sc(=O)n(-c2ccccc2)c1Cl)c1ccncc1 28.2 µM [inhibitor, partial curve, poor fit]
Cc1ccn2c(=O)c(C(=O)NCCc3ccccc3)c(O)nc2c1 79.4 µM [inhibitor, partial curve]
O=C(/C=C/c1c(F)cccc1Cl)Nc1nn[nH]n1 50.1 µM [inhibitor, partial curve, poor fit]
c1ccc(-c2csc(N3CCN(c4ccccn4)CC3)n2)cc1 14.1 µM [inhibitor, partial curve]
O=C1N[C@@H](Cc2ccccc2)[C@@H](c2ccco2)O1 5.01 µM [inhibitor, partial curve]

Two records picked at random from the list so far, as already listed:
Potency, inconclusive:
O=C1N[C@@H](Cc2ccccc2)[C@@H](c2ccco2)O1 5.01 µM [inhibitor, partial curve]
Cc1cc(C)c(C)c(OCCCOc2cccc3cccnc23)c1 35.5 µM [inhibitor, partial curve]
